Source: article doi:10.1101/2025.09.18.677151

Protein sequences, listed by entry. Tags and fused reporters are not part of them. Lines headed by an entry give the natural chain unless they say otherwise; changes in a name come on top.
UniProt P40120: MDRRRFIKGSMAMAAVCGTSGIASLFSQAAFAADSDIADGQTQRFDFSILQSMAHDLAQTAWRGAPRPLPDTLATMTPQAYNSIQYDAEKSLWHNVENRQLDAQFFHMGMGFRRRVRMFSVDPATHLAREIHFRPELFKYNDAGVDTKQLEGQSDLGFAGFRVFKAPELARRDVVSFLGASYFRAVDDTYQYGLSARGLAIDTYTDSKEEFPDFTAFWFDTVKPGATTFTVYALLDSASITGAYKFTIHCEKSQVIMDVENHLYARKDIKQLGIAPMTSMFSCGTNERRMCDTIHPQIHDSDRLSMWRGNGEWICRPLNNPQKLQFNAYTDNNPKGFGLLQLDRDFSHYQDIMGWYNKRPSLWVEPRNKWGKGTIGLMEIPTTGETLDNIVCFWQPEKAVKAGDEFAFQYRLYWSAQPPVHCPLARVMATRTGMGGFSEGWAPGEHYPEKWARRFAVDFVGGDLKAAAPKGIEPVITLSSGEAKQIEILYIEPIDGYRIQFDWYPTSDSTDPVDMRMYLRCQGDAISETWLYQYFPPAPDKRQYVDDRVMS

Target: T1, E. coli TatC (subunit of the overexpressed TatBC complex) (E. coli) (UniProt P69423)
T1 sequence: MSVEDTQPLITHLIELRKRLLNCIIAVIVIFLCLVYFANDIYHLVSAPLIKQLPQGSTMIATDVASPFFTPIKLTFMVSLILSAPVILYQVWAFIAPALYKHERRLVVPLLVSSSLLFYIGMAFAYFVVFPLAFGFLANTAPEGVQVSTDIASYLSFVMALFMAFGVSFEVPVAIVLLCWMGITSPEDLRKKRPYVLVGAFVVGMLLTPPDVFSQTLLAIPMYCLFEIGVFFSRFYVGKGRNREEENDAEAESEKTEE
Assay: cryo-EM structure

For “E. coli MdoD, full length with its Tat signal peptide (from UniProt P40120)”, the binding was “binds”.

No constants are given. Whether binding was seen depends on the method and setting. Binding can be weak; no strength is given.
